# From PubChem BioAssay AID493014 (National Center for Advancing Translational Sciences (NCATS), 2011)
# The other results are listed elsewhere or left out. Shown are side measurements of this screen, not its main read-out; they come without a call. The list favours compounds with an active or inconclusive main result. The note in brackets gives the kind of curve behind each potency; many fits are weak.
# Test: qHTS Assay to Find Inhibitors of Chronic Active B-Cell Receptor Signaling
# Settings: ABC-DLBCL IkBa-CBG/CBR reporter, luminescence ratio (green luciferase fused to IkBa over red control in TMD8 lymphoma cells), 4 h
# Method in brief: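 Cell line TMD8 (human ABC DLBCL), stably expressing tet-inducible CBG68-IkBa fusion and CBR; IMDM/0.5% FBS; cpd up to 46 uM; dox induction, 4 h, 37C/5% CO2; dual luminescence; green/red ratio; MG132 control.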
# [1] = measured here: CBR red luminescence, cell number
# [2] = measured here: IkBa-CBG green luminescence
Compound,AC50 [1],AC50 [2]
CCN1CCc2c(sc(NC(=S)NC(=O)c3ccccc3)c2C#N)C1,"12.6 µM [falling, single point]",
O=C(NNC(=O)c1cccc([N+](=O)[O-])c1)c1ccncc1,"12.6 µM [falling, partial curve, poor fit]",
O=C(CCN1CCC(c2ccccc2)C1)c1ccc2c(c1)OCCO2 (stereo not drawn),"10 µM [falling, partial curve]","11.6 µM [rising, partial curve, poor fit]"
CSc1cccc(NC(=O)C(C)C)c1,"35.5 µM [rising, single point]",
CCOC(=O)c1sc(NCCNc2nc(C)c(C(=O)OCC)s2)nc1C,"28.2 µM [falling, partial curve, poor fit]",
Cc1cc(C)c(NC(=O)c2ccc(S(=O)(=O)N(C)C)cc2)c(C)n1,"25.9 µM [rising, single point]",
COc1ccc(/C=N/Nc2nc(C)cc(-c3ccccc3)n2)cc1OC,"14.1 µM [falling, partial curve, poor fit]",
COc1cccc2sc(N(CCCN(C)C)C(=O)CCS(=O)(=O)c3ccccc3)nc12,"20 µM [falling, partial curve, poor fit]",
N/C(=N\OC(=O)CCc1ccccc1)c1cccc(Br)c1,"0.708 µM [rising, full curve]",
COc1ccc(OCC(=O)Nc2cccc(NC(=O)c3ccco3)c2)cc1,"1 µM [falling, full curve, poor fit]",
Cc1ccc(OC(=O)c2ccccc2C(=O)OCC(F)(F)C(F)F)cc1,"29.1 µM [rising, single point]",
C=CCc1cc(Cl)ccc1OCCOCCNC(C)CC (stereo not drawn),"22.4 µM [falling, single point]",
Cc1cccc2nc(COc3ccc(Cl)c4cccnc34)cn12,"12.6 µM [falling, partial curve, poor fit]",
O=C(Nc1ccccc1C(=O)O)c1cc(S(=O)(=O)N2CCCCC2)c(Cl)cc1Cl,"2.82 µM [falling, full curve, poor fit]",
CC(C)(C)NC(=O)c1cccc2c1OC(C)(C)C2,"10.3 µM [rising, partial curve, poor fit]",
CCN(Cc1ccc(OC)c(F)c1)C(C)C(=O)Nc1ccc(S(=O)(=O)N2CCCC2)cc1 (stereo not drawn),"7.31 µM [rising, partial curve, poor fit]",
S=C(NCCc1ccc(Cl)cc1)NCc1ccccc1,"15.8 µM [falling, partial curve, poor fit]",
O=C(NCCc1ccc2c(c1)OCCO2)c1ccccn1,"15.8 µM [falling, single point]",
O=C(NCCN1CCOCC1)c1cc(-c2ccc(Br)cc2)on1,"6.31 µM [rising, full curve]",
Cc1ccc(CNc2oc(-c3ccco3)nc2S(=O)(=O)c2ccccc2)cc1,"29.1 µM [falling, single point]",
Cc1ccc2c(c1)C(=O)C(=O)N2CCOc1ccccc1,"3.98 µM [rising, full curve]","11.2 µM [falling, partial curve]"
CN1C(=O)Cc2cc(S(=O)(=O)NCc3cccs3)ccc21,"20 µM [falling, single point]",

# 13 structures from above, sorted by length of the SMILES, ascending.
Compound,AC50 [1],AC50 [2]
C=CCc1cc(Cl)ccc1OCCOCCNC(C)CC (stereo not drawn),"22.4 µM [falling, single point]",
S=C(NCCc1ccc(Cl)cc1)NCc1ccccc1,"15.8 µM [falling, partial curve, poor fit]",
O=C(NCCc1ccc2c(c1)OCCO2)c1ccccn1,"15.8 µM [falling, single point]",
CC(C)(C)NC(=O)c1cccc2c1OC(C)(C)C2,"10.3 µM [rising, partial curve, poor fit]",
Cc1ccc2c(c1)C(=O)C(=O)N2CCOc1ccccc1,"3.98 µM [rising, full curve]","11.2 µM [falling, partial curve]"
N/C(=N\OC(=O)CCc1ccccc1)c1cccc(Br)c1,"0.708 µM [rising, full curve]",
CN1C(=O)Cc2cc(S(=O)(=O)NCc3cccs3)ccc21,"20 µM [falling, single point]",
COc1ccc(/C=N/Nc2nc(C)cc(-c3ccccc3)n2)cc1OC,"14.1 µM [falling, partial curve, poor fit]",
Cc1ccc(OC(=O)c2ccccc2C(=O)OCC(F)(F)C(F)F)cc1,"29.1 µM [rising, single point]",
Cc1ccc(CNc2oc(-c3ccco3)nc2S(=O)(=O)c2ccccc2)cc1,"29.1 µM [falling, single point]",
COc1cccc2sc(N(CCCN(C)C)C(=O)CCS(=O)(=O)c3ccccc3)nc12,"20 µM [falling, partial curve, poor fit]",
O=C(Nc1ccccc1C(=O)O)c1cc(S(=O)(=O)N2CCCCC2)c(Cl)cc1Cl,"2.82 µM [falling, full curve, poor fit]",
CCN(Cc1ccc(OC)c(F)c1)C(C)C(=O)Nc1ccc(S(=O)(=O)N2CCCC2)cc1 (stereo not drawn),"7.31 µM [rising, partial curve, poor fit]",

# Further structures:

Compound,AC50 [1],AC50 [2]
O=C(c1ccc2noc(-c3ccccc3)c2c1)N1CCN(c2ccccc2)CC1,"18.4 µM [falling, single point]",
O=C(O)C(c1ccccc1)N1C(=O)/C(=C/c2cccs2)SC1=S (stereo not drawn),"2.82 µM [falling, single point]",
COc1cccc(CNC2CCCCCCC2)c1OC,"25.1 µM [rising, partial curve, poor fit]",
COc1ccc(OC)c(NC(=O)c2cc(-c3ccc(C)cc3O)n[nH]2)c1,"14.6 µM [falling, partial curve, poor fit]",
COc1cc(/C=N/O)ccc1Oc1cnccn1,"0.708 µM [falling, partial curve, poor fit]",
O=C(NCCSc1ncc(-c2ccc(F)cc2)[nH]1)c1ccc2c(c1)OCO2,"2.06 µM [rising, full curve, poor fit]",
Clc1ccccc1OCc1nc(-c2ccccn2)no1,"14.6 µM [falling, single point]",
CCOc1cc2c(cc1OCC)C(c1ccccc1)N(c1ccc(C(=O)O)cc1)C(=O)C2 (stereo not drawn),,"17.8 µM [rising, partial curve, poor fit]"
COc1ccccc1NC(=S)NNC(=O)c1nn(C)c(C)c1Br,"7.31 µM [falling, partial curve]",
Brc1ccc(-c2ncc(-c3ccccc3)cn2)cc1,"29.1 µM [falling, single point]",
COc1ccc(S(=O)(=O)N2CCCCC2)cc1NC(=O)COc1ccccc1,"29.1 µM [falling, single point]",
CCOC(=O)c1sc(NC(=O)CSc2nnnn2-c2ccccc2)c(C(=O)OCC)c1C,"6.31 µM [rising, partial curve, poor fit]",
Fc1cccc(-c2nc(-c3ccncc3)no2)c1,"4.47 µM [rising, single point]",
Cc1cccc(OCC(=O)Nc2ccc3c(c2)C(=O)NC3=O)c1,"3.55 µM [falling, partial curve, poor fit]",
CCOc1ncccc1C(=O)NNC(=O)c1ccc(NS(=O)(=O)c2cccs2)cc1,"20.6 µM [falling, single point]",
C=CCNc1oc(-c2ccc(-c3ccccc3)cc2)nc1C#N,,"3.26 µM [falling, full curve]"
Cc1ccc(SC(C)C(=O)Nc2ccccc2C(=O)N2CCOCC2)cc1 (stereo not drawn),"32.6 µM [rising, single point]",
O=C(CCCN1C(=O)/C(=C/c2cccs2)SC1=S)NNC(=O)c1cccnc1,"4.47 µM [falling, partial curve]",
C=CCNC(=O)c1ccccc1NC(=O)Nc1ccccc1,"9.2 µM [falling, partial curve]",
Brc1ccc(CN2C3=NCCCN3c3ccccc32)cc1,"29.1 µM [falling, single point]",
COc1ccc2c(c1)C(C)=CC(C)(C)N2S(=O)(=O)c1ccc(C)cc1,"5.01 µM [rising, full curve]","3.55 µM [falling, full curve]"
CCNc1ccc(N=Nc2c(C)n(C)n(-c3ccccc3)c2=O)cc1,,"14.1 µM [falling, partial curve, poor fit]"

Compound,AC50 [1],AC50 [2]
COc1cccc(CN(C)CC(=O)NC(=O)NCc2ccco2)c1,"16.4 µM [rising, partial curve, poor fit]",
COc1ccc(OC)c(-c2cc(C(=O)N3CCCc4ccccc43)no2)c1,"20 µM [falling, partial curve, poor fit]",
Cc1nc(N)sc1-c1csc(Nc2ccc(S(N)(=O)=O)cc2)n1,"10 µM [falling, partial curve, poor fit]",
COC(=O)c1nc(NC(=S)NC(=O)c2cccs2)sc1C,"5.01 µM [falling, partial curve, poor fit]",
CCc1cccc(CC)c1N(COC)C(=O)Cn1c(C(C)O)nc2ccccc21 (stereo not drawn),"35.5 µM [falling, single point]",
O=C(NOCc1ccccc1)c1ccc(Cl)cc1,"11.6 µM [falling, partial curve]",
C=COCCNC(=O)Nc1ccc(Cl)c(Cl)c1,"13 µM [falling, partial curve]",
NC(=O)c1ccc(NC(=O)COc2cccc3c2CCNC3=O)cc1,"20.6 µM [rising, partial curve, poor fit]",
N#Cc1ccc(N2Cc3ccccc3C2=NC(=O)c2cccs2)cc1,"2.59 µM [rising, partial curve, poor fit]",
O=C(Nc1ccc(Cl)cc1)Nc1cc(S(=O)(=O)N2CCOCC2)ccc1N1CCCC1,"16.4 µM [rising, partial curve]",
COc1cc(-c2nc(-c3cccc(C)c3)no2)cc(OC)c1OC,"7.31 µM [rising, partial curve, poor fit]",
CCOc1ccc(C(=O)/C=C/c2cc(OC)c(OC)c(OC)c2)cc1,"10 µM [falling, partial curve]",
CCOc1ccc2ccccc2c1/C=N\NC(=O)c1ccc([N+](=O)[O-])cc1,"1.78 µM [rising, full curve, poor fit]",
CCOC(=O)C1=C(c2ccccc2)NC(N)=NC1c1ccc(OCc2ccc(C(=O)OC)cc2)cc1 (stereo not drawn),"17.8 µM [falling, single point]",
COc1ccc(-n2cc(CNC3CCN(C)CC3)c(-c3cccc(F)c3)n2)cc1,"7.08 µM [falling, full curve, poor fit]",
CCOc1ccc(S(=O)(=O)Nc2cc(C)ccn2)c2ccccc12,"32.6 µM [falling, partial curve, poor fit]",
COc1ccc(-c2cnnn2-c2ccc(NC(=O)c3ccco3)cc2)cc1OC,"3.55 µM [rising, single point]","10 µM [falling, partial curve, poor fit]"
O=C(Nc1ccccc1F)c1ccc2snnc2c1,"14.1 µM [falling, partial curve]",
O=C(Nc1nc(-c2cccs2)cs1)c1cccc(S(=O)(=O)N2CCCCC2)c1,"14.6 µM [falling, partial curve]",
COc1ccc(C)c2sc(N(CCCN(C)C)C(=O)c3ccc4c(c3)OCCO4)nc12,"25.9 µM [falling, single point]",
